Values quoted from earlier work, collected in patent US6348491B1 (National Science Council, priority 1999, dated 2002).

solubility in water: about 0.01 mg/ml
Structure (SMILES): CC(=O)O[C@H]1C(=O)[C@@]2(C)[C@H]([C@H](OC(=O)c3ccccc3)[C@]3(O)C[C@H](OC(=O)[C@H](O)[C@@H](NC(=O)c4ccccc4)c4ccccc4)C(C)=C1C3(C)C)[C@]1(OC(C)=O)CO[C@@H]1C[C@@H]2O [paclitaxel]
